For the assay, the system named is BDF1 mice, colon carcinoma 38 sc, T/C %. The assay can be described thus: NCI In Vivo Anticancer Drug Screen. Data for tumor model Colon Carcinoma 38 (subcutaneous) in B6D2F1 (BDF1) mice. The method, then:
The antitumor activity of compounds was measured in mice bearing transplantable tumors. Survival or tumor size were measured and the results are expressed as the measurement made in the treated group (T) divided by the measurement made in the vehicle treated control group (C). The tumor model used in this assay is Colon Carcinoma 38 (subcutaneous) in B6D2F1 (BDF1) mice

Where [1] appears, read: T/C endpoint: median tumor weight (est.), dose: 400.0 mg/kg/injection, schedule: Q07DX002 (ip), vehicle: saline with Tween-80, higher T/C = larger tumour.
The mark [2] stands for this setting: T/C endpoint: median tumor weight (est.), dose: 200.0 mg/kg/injection, schedule: Q07DX002 (ip), vehicle: Klucel (hydroxypropylcellulose) (HPC), higher T/C = larger tumour.
The mark [3] stands for this setting: T/C endpoint: median tumor weight (est.), dose: 25.0 mg/kg/injection, schedule: Q07DX002 (ip), vehicle: saline with Tween-80, evaluated on day 20, higher T/C = larger tumour.
The mark [4] stands for this setting: T/C endpoint: median tumor weight (est.), dose: 200.0 mg/kg/injection, schedule: Q07DX002 (ip), vehicle: saline with Tween-80, evaluated on day 20, higher T/C = larger tumour.
The mark [5] stands for this setting: T/C endpoint: median tumor weight (est.), dose: 800.0 mg/kg/injection, schedule: Q07DX002 (ip), vehicle: saline with Tween-80, higher T/C = larger tumour.
Setting [6] is: T/C endpoint: median tumor weight (est.), dose: 50.0 mg/kg/injection, schedule: Q07DX002 (ip), vehicle: saline with Tween-80, evaluated on day 20, higher T/C = larger tumour.
Where [7] appears, read: T/C endpoint: median tumor weight (est.), dose: 400.0 mg/kg/injection, schedule: Q07DX002 (ip), vehicle: saline with Tween-80, evaluated on day 20, higher T/C = larger tumour.

In PubChem BioAssay AID212 (DTP/NCI, 2004) one finds T/C and survivor count data, which are given here for 23 molecules.

The list does not hold the whole screen: it is rich in T/C values a quarter to a half above the control, in often repeated tests (any T/C) and in doses without a T/C. Further doses and runs are listed elsewhere. T/C: endpoint of the treated group in % of that of the vehicle group. Schedule codes are those of the source, read here as Q, the interval in days (D) or hours (H), X, the number of doses. Some entries hold several experiments; the results are listed from low to high. Some T/C values are followed by the survivors on the day toxicity was checked, most often the fifth; where none is given, no animal had died by that day. Some doses have a count of surviving animals in place of a T/C: the source holds a T/C of zero for them, seemingly a mark for toxic or unscored doses. Counts of survivors are from the toxicity check (mostly the fifth day) where no day follows; animals may have died later. For survival time, this PubChem deposit counts one and a half times the control or more as active, and values a quarter to a half above the control carry no call in these data; other NCI protocols may use other cut-offs.

`O=C1C=CC(=O)N1c1ccc(Cl)cc1`: where the note is “T/C endpoint: median tumor weight (est.), dose: 10.0 mg/kg/injection, schedule: Q07DX002 (ip), vehicle: Klucel (hydroxypropylcellulose) (HPC), evaluated on day 20, higher T/C = larger tumour”, the T/C is 139 % of control. Under “T/C endpoint: median tumor weight (est.), dose: 40.0 mg/kg/injection, schedule: Q07DX002 (ip), vehicle: Klucel (hydroxypropylcellulose) (HPC), higher T/C = larger tumour”, the survivor count was 0 of 10 on day 20.
Regarding `CNNCc1ccc(C(=O)NC(C)C)cc1`, for the setting “T/C endpoint: median tumor weight (est.), dose: 25.0 mg/kg/injection, schedule: Q07DX003 (ip), vehicle: saline, evaluated on day 20, higher T/C = larger tumour”, the T/C is 148 % of control.
In the case of `CCCCCCCCCCCC(=O)NC1CC(O[C@H]2C[C@](O)(C(=O)CO)Cc3c(O)c4c(c(O)c32)C(=O)c2c(OC)cccc2C4=O)OC(C)C1O` (stereo partly drawn), the T/C (T/C endpoint: median survival time, dose: 27.0 mg/kg/injection, schedule: Q07DX003 (iv), vehicle: saline, higher T/C = longer survival) was 145 % of control [8 of 10 alive on day 107]. In addition, the survivor count is given as 6 of 10 on day 20 (T/C endpoint: median tumor weight (est.), dose: 112.5 mg/kg/injection, schedule: Q07DX002 (ip), vehicle: distilled water + Tween-80, higher T/C = larger tumour) and 4 of 10 on day 20 (T/C endpoint: median tumor weight (est.), dose: 225.0 mg/kg/injection, schedule: Q07DX002 (ip), vehicle: distilled water + Tween-80, higher T/C = larger tumour).
With `CCn1cnc2c(=S)nc[nH]c21`, the survivor count under setting [1] is recorded as 6 of 10 on day 20.
Consider `CCC[CH2][Sn]1([CH2]CCC)[O]C2C(CO)OC(n3ccc(N)nc3=O)C2[O]1` (stereo not drawn), for which, for the setting “T/C endpoint: median tumor weight (est.), dose: 25.0 mg/kg/injection, schedule: Q07DX002 (ip), vehicle: Klucel (hydroxypropylcellulose) (HPC), higher T/C = larger tumour”, the survivor count is 0 of 10 on day 20.
Regarding `C[Si](C)(C)OSc1ccccc1[N+](=O)[O-]`, the T/C is, setting by setting: (T/C endpoint: median tumor weight (est.), dose: 200.0 mg/kg/injection, schedule: Q07DX002 (ip), vehicle: Klucel (hydroxypropylcellulose) (HPC), evaluated on day 20, higher T/C = larger tumour) 138 % of control; (T/C endpoint: median tumor weight (est.), dose: 400.0 mg/kg/injection, schedule: Q07DX002 (ip), vehicle: Klucel (hydroxypropylcellulose) (HPC), evaluated on day 20, higher T/C = larger tumour) 126 % of control.
Take `CC1OC(OC2CC(O)(C(=O)CO)Cc3c(O)c4c(c(O)c32)C(=O)c2ccccc2C4=O)CC(N)C1O` (stereo not drawn): the T/C was 129 % of control (T/C endpoint: median survival time, dose: 3.0 mg/kg/injection, schedule: Q07DX003 (iv), vehicle: saline, higher T/C = longer survival) and 147 % of control (T/C endpoint: median tumor weight (est.), dose: 0.12 mg/kg/injection, schedule: Q07DX002 (ip), vehicle: saline, evaluated on day 20, higher T/C = larger tumour). Besides, the survivor count is recorded as 5 of 9 on day 60 (T/C endpoint: median survival time, dose: 4.7 mg/kg/injection, schedule: Q07DX003 (iv), vehicle: saline, higher T/C = longer survival); 1 of 10 on day 60 (T/C endpoint: median survival time, dose: 7.3 mg/kg/injection, schedule: Q07DX003 (iv), vehicle: saline, higher T/C = longer survival); 5 of 10 on day 20 (T/C endpoint: median tumor weight (est.), dose: 2.0 mg/kg/injection, schedule: Q07DX002 (ip), vehicle: water, higher T/C = larger tumour); 0 of 10 on day 20 (T/C endpoint: median tumor weight (est.), dose: 4.0 mg/kg/injection, schedule: Q07DX002 (ip), vehicle: water, higher T/C = larger tumour).
Take `Nc1cc(Cl)c2[nH]cnc2n1`: the survivor count is 2 of 10 on day 20 and 6 of 10 on day 20 (T/C endpoint: median tumor weight (est.), dose: 400.0 mg/kg/injection, schedule: Q07DX002 (ip), vehicle: distilled water + Tween-80, higher T/C = larger tumour); 2 of 10 on day 20 (T/C endpoint: median tumor weight (est.), dose: 800.0 mg/kg/injection, schedule: Q07DX002 (ip), vehicle: distilled water + Tween-80, higher T/C = larger tumour); 0 of 10 on day 20 (T/C endpoint: median tumor weight (est.), dose: 1600.0 mg/kg/injection, schedule: Q07DX002 (ip), vehicle: distilled water + Tween-80, higher T/C = larger tumour).
As to `C[CH2][Sn]1([CH2]C)[O]OC(c2ccccc2)[O]1` (stereo not drawn), the T/C (T/C endpoint: median tumor weight (est.), dose: 3.12 mg/kg/injection, schedule: Q07DX002 (ip), vehicle: saline with Tween-80, evaluated on day 20, higher T/C = larger tumour) is 135 % of control. For the same molecule, the survivor count (T/C endpoint: median tumor weight (est.), dose: 50.0 mg/kg/injection, schedule: Q07DX002 (ip), vehicle: saline with Tween-80, higher T/C = larger tumour) is given as 6 of 10 on day 20.
For `CCCCCCCCCCCCSC1=C(Cl)C(=O)C(OC)=C(OC)C1=O`, the survivor count was 5 of 10 on day 20 (T/C endpoint: median tumor weight (est.), dose: 200.0 mg/kg/injection, schedule: Q07DX002 (ip), vehicle: saline with Tween-80, higher T/C = larger tumour); 3 of 10 on day 20 and 6 of 10 on day 20 under setting [1].
`N/C(=N\OC(=O)Nc1ccc(CSc2ccc(Cl)cc2)o1)c1ccccn1`: the survivor count is recorded as 6 of 10 on day 20 under setting [2] and 0 of 10 on day 20 (T/C endpoint: median tumor weight (est.), dose: 400.0 mg/kg/injection, schedule: Q07DX002 (ip), vehicle: Klucel (hydroxypropylcellulose) (HPC), higher T/C = larger tumour).
Take `CCCC(=O)OCc1cc(=O)n(C)c2c3c4c(cc12)c(C)cc(=O)n4CO3`: the survivor count under setting [2] is 0 of 10 on day 20.
Take `COC(=O)Nc1ccc(Cc2ccc(NC(=O)OC)cc2)cc1`: the T/C by setting is: (T/C endpoint: median tumor weight (est.), dose: 6.25 mg/kg/injection, schedule: Q07DX002 (ip), vehicle: saline with Tween-80, evaluated on day 20, higher T/C = larger tumour) 125 % of control; under setting [3], 126 % of control; under setting [4], 69, 80, 95, 111 % of control. For the same molecule, the survivor count under setting [5] was 3 of 10 on day 20 and the survivor count (T/C endpoint: median tumor weight (est.), dose: 1600.0 mg/kg/injection, schedule: Q07DX002 (ip), vehicle: saline with Tween-80, higher T/C = larger tumour) is 0 of 10 on day 20.
In the case of `OC1(CSc2ccccc2)CCCCC1`, the survivor count under setting [5] was 0 of 10 on day 20.
As to `CCC(CC)COC(=O)c1ccccc1C(=O)OCC(CC)CC`, the T/C under setting [3] was 125 % of control, the T/C under setting [6] is 147 % of control and the T/C under setting [7] was 129 % of control.
Turning to `Cc1cc(C)c(-c2cc(O)c(C)cc2O)c(C)c1`, the T/C (T/C endpoint: median tumor weight (est.), dose: 50.0 mg/kg/injection, schedule: Q07DX002 (ip), vehicle: Klucel (hydroxypropylcellulose) (HPC), evaluated on day 20, higher T/C = larger tumour) was 139 % of control. In addition, the survivor count (T/C endpoint: median tumor weight (est.), dose: 800.0 mg/kg/injection, schedule: Q07DX002 (ip), vehicle: Klucel (hydroxypropylcellulose) (HPC), higher T/C = larger tumour) was 6 of 10 on day 20.
Regarding `COc1ccc(OC)c(Cc2cnc3nc(N)nc(N)c3c2C)c1`, the survivor count is, setting by setting: (T/C endpoint: median tumor weight (est.), dose: 200.0 mg/kg/injection, schedule: Q07DX002 (ip), vehicle: water, higher T/C = larger tumour) 2 of 10 on day 20; (T/C endpoint: median tumor weight (est.), dose: 400.0 mg/kg/injection, schedule: Q07DX002 (ip), vehicle: water, higher T/C = larger tumour) 2 of 10 on day 20.
Consider `CN(C1=NS(=O)(=O)N=C(N(C)c2ccccc2)O1)c1ccccc1`, for which, where the note is “T/C endpoint: median tumor weight (est.), dose: 50.0 mg/kg/injection, schedule: Q07DX003 (ip), vehicle: Klucel (hydroxypropylcellulose) (HPC), evaluated on day 20, higher T/C = larger tumour”, the T/C is 131 % of control.
Take `N#CC(=C1C=CC(=NO)C=C1)c1ccc(Cl)cc1`: the T/C by setting is: under setting [6], 128 % of control; under setting [4], 133 % of control.
For the molecule `C/C(=N\N=C(/[Se])N1CC2CCC(CC2)C1)c1ccccn1`, the T/C (T/C endpoint: median tumor weight (est.), dose: 1.5 mg/kg/injection, schedule: Q07DX002 (ip), vehicle: Klucel (hydroxypropylcellulose) (HPC), evaluated on day 20, higher T/C = larger tumour) was 141 % of control.
With `CC1=CC(=NN=c2cc(C)n([O-])c(C)c2)C=C(C)[N+]1=O`, the T/C (T/C endpoint: median tumor weight (est.), dose: 50.0 mg/kg/injection, schedule: Q07DX002 (ip), vehicle: suspension in saline, evaluated on day 20, higher T/C = larger tumour) was 137 % of control and the T/C (T/C endpoint: median tumor weight (est.), dose: 100.0 mg/kg/injection, schedule: Q07DX002 (ip), vehicle: saline, evaluated on day 20, higher T/C = larger tumour) was 127 % of control [9 of 10 alive on day 20]. The survivor count by setting is: (T/C endpoint: median tumor weight (est.), dose: 800.0 mg/kg/injection, schedule: Q07DX002 (ip), vehicle: saline, higher T/C = larger tumour) 3 of 10 on day 20; (T/C endpoint: median tumor weight (est.), dose: 800.0 mg/kg/injection, schedule: Q07DX002 (ip), vehicle: suspension in saline, higher T/C = larger tumour) 1 of 10 on day 20.
`COc1cc(C(=O)N/N=C/c2cccc([N+](=O)[O-])c2)cc(OC)c1OC`: the T/C was 131 % of control [9 of 10 alive on day 20] under setting [7] and 140 % of control [8 of 10 alive on day 20] (T/C endpoint: median tumor weight (est.), dose: 800.0 mg/kg/injection, schedule: Q07DX002 (ip), vehicle: saline with Tween-80, evaluated on day 20, higher T/C = larger tumour).
`O=C(Nc1ccccc1)c1c(O)[nH]c(=S)[nH]c1=O`: the survivor count reads like this: (T/C endpoint: median tumor weight (est.), dose: 112.0 mg/kg/injection, schedule: Q07DX002 (ip), vehicle: saline with Tween-80, higher T/C = larger tumour) 6 of 10 on day 20; (T/C endpoint: median tumor weight (est.), dose: 225.0 mg/kg/injection, schedule: Q07DX002 (ip), vehicle: saline with Tween-80, higher T/C = larger tumour) 4 of 10 on day 20; (T/C endpoint: median tumor weight (est.), dose: 450.0 mg/kg/injection, schedule: Q07DX002 (ip), vehicle: saline with Tween-80, higher T/C = larger tumour) 0 of 10 on day 20 and 1 of 10 on day 20; (T/C endpoint: median tumor weight (est.), dose: 900.0 mg/kg/injection, schedule: Q07DX002 (ip), vehicle: saline with Tween-80, higher T/C = larger tumour) 0 of 10 on day 20.
